Assay results published in US20130012693.

Sequences of proteins named here, by UniProt entry; tags and fusion partners are left off. Residues count along the entry.
UniProt P01138, 122-241: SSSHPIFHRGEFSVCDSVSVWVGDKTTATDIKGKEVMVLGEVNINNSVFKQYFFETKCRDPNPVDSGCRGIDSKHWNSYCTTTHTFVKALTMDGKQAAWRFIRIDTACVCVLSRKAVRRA

Legend:
beta-NGF (Homo sapiens) [1] = biological target: beta-NGF (Homo sapiens) (UniProt P01138); test: activity in cells; details: single-stranded DNA
beta-NGF (Homo sapiens) [2] = biological target: beta-NGF (Homo sapiens) (UniProt P01138); test: filter binding; details: purified recombinant protein, label: radiolabel, single-stranded DNA
[3] = BndU at Z' (n) positions [n positions 12,19,20,25,26,27,33,34,36 = modified dU], retained binding, variant of 2426-66

Q: What does the source list for “CATGAGGACTTGGGGTTTAGCCGTTGTG [2426-66-75]”?
A: functional effect of the aptamer (beta-NGF (Homo sapiens) [1]; BndU at Z' (n) positions, dT at 11 and 18, 3'-idT in cell assays [n positions 3,10,16,17,24,25,27 = modified dU], PC12 neurite growth at 10 nM, not effective inhibitor although affinity retained, 3'-idT, purified recombinant protein, variant of 2426-66-50): not active; binding result (beta-NGF (Homo sapiens) [2]; BndU at Z' (n) positions, dT at 11 and 18, 3'-idT in cell assays [n positions 3,10,16,17,24,25,27 = modified dU], no loss of affinity vs unsubstituted control, variant of 2426-66-50): binds

Q: “AGTGACCGTCTGCCTGCAGCGGGACACATGAGGACTTGGGGTTTAGCCGT [2426-66-3]” was tested. Which “functional effect of the aptamer” value (beta-NGF (Homo sapiens) [1]; BndU at Z' (n) positions [n positions 29,36,37,42,43,44,50 = modified dU], PC12 neurite growth at 10 nM, little inhibition, 3'-idT, purified recombinant …, variant of 2426-66) did it give?
A: The value was “not active”.

Q: And the “functional effect of the aptamer” value (beta-NGF (Homo sapiens) [1]; BndU at Z' (n) positions [n positions 29,36,37,42,43,44,50 = modified dU], TrkA phosphorylation, little inhibition at 10 nM, purified recombinant protein, variant of 2426-66)?
A: The value was “not active”.

Q: Does “AGTGACCGTCTGCCTGCAGCGGGACACATGAGGACTTGGGGTTTAGCCGT [2426-66-3]” bind (beta-NGF (Homo sapiens) [2]; BndU at Z' (n) positions [n positions 29,36,37,42,43,44,50 = modified dU], did not retain binding, described as poor affinity in p179, variant of 2426-66)?
A: Result: no binding

Q: For “CATGAGGACTTGGGGTTTAGCCGTTGTG [2426-66-50]”, which “functional effect of the aptamer” value (beta-NGF (Homo sapiens) [1]; BndU at Z' (n) positions, 3'-idT in cell assays [n positions 3,10,11,16,17,18,24,25,27 = modified dU], TrkA phosphorylation effectively inhibited at 10 nM, purified recombinant protein, variant of 2426-66) is on record?
A: Its value is “active”.

Q: For “GAGTGACCGTCTGCCTGCAGCGGGACACATGAGGACTTGGGGTTTAGCCGTTGTGGCACAGAGAAGAAACAAGACC [2426-66]”, which “functional effect of the aptamer” value (beta-NGF (Homo sapiens) [1]; BndU at Z' (n) positions [n positions 30,37,38,43,44,45,51,52,54 = modified dU], TrkA phosphorylation effectively inhibited at 10 nM, purified recombinant protein) is on record?
A: The value was “active”.

Q: Does “AGCGGGACACATGAGGACTTGGGGTTTAGCCGTTGTGGCACAGAGAAGAA [2426-66-20]” bind (beta-NGF (Homo sapiens) [2]; [3])?
A: Result: binds

Q: Does “GGACACATGAGGACTTGGGGTTTAGCCGTTGTG [2426-66-45]” bind (beta-NGF (Homo sapiens) [2]; BndU at Z' (n) positions [n positions 8,15,16,21,22,23,29,30,32 = modified dU], retained binding, variant of 2426-66)?
A: Result: binds

Q: Does “GGGACACATGAGGACTTGGGGTTTAGCCGTTGTGGCACAGAGAAGAAACA [2426-66-23]” bind (beta-NGF (Homo sapiens) [2]; BndU at Z' (n) positions [n positions 9,16,17,22,23,24,30,31,33 = modified dU], retained binding, variant of 2426-66)?
A: Result: binds

Q: Does “GCAGCGGGACACATGAGGACTTGGGGTTTAGCCGTTGTGGCACAGAGAAG [2426-66-18]” bind (beta-NGF (Homo sapiens) [2]; BndU at Z' (n) positions [n positions 14,21,22,27,28,29,35,36,38 = modified dU], retained binding, variant of 2426-66)?
A: Result: binds

Q: Does “GTGACCGTCTGCCTGCAGCGGGACACATGAGGACTTGGGGTTTAGCCGTT [2426-66-4]” bind (beta-NGF (Homo sapiens) [2]; BndU at Z' (n) positions [n positions 28,35,36,41,42,43,49,50 = modified dU], did not retain binding, variant of 2426-66)?
A: Result: no binding

Q: Does “GACACATGAGGACTTGGGGTTTAGCCGTTGTGGCACAGAGAAGAAACAAG [2426-66-25]” bind (beta-NGF (Homo sapiens) [2]; BndU at Z' (n) positions [n positions 7,14,15,20,21,22,28,29,31 = modified dU], retained binding, variant of 2426-66)?
A: Result: binds

Q: Does “AGCGGGACACATGAGGACTTGGGGTTTAGCCGTTGTG [2426-66-42]” bind (beta-NGF (Homo sapiens) [2]; [3])?
A: Result: binds

No signal at the amounts used counts as a negative.
